Among the data in paper PMC9788671 are binding values, retold here.

Amino acid sequences for entries named in this document (tags omitted).
UniProt Q9NZV8: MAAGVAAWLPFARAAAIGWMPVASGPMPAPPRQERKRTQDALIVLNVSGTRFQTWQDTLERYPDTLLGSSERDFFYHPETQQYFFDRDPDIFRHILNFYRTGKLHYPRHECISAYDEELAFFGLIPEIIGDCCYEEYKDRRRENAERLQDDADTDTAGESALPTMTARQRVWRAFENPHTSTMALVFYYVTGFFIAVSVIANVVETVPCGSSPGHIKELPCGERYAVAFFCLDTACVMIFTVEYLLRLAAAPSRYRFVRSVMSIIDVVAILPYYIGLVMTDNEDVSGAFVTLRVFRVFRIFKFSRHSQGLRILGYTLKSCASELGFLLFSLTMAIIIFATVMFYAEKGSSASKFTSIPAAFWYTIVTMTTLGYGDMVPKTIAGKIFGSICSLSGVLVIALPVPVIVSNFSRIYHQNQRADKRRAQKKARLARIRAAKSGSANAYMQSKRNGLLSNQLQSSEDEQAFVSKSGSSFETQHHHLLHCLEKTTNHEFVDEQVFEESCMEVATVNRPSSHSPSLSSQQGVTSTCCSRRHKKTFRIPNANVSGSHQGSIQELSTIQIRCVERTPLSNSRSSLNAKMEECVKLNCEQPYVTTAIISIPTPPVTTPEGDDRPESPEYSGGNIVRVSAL

Results are given in words; binding and its absence hold for the method and conditions named. Binding seen in cells or lysates may run through a third protein. A yes stands for co-enrichment or nearness to the bait. Other partners may have been found.

Experiment [1] concerns the target TAP-Kv4.2 (human) (UniProt Q9NZV8). Description: affinity purification with mass spectrometry; TAP-Kv4.2 expressed by lentivirus in rat hippocampal neurons, harvested at DIV14; weak lysis buffer of the kit (0.1% NP-40); streptavidin resin, then calmodulin resin; gel cut into high and low molecular weight fragments; no MS of the control sample.
Experiment [2] shares this target. The experiment in a line: affinity purification with mass spectrometry; TAP-Kv4.2 expressed by lentivirus in rat hippocampal neurons, harvested at DIV14; strong lysis buffer (1% Triton X-100, 0.5% deoxycholate in PBS, pH 7.4); streptavidin resin, then calmodulin resin; gel cut into high and low molecular weight fragments; no MS of the control sample.

B1: Cand1 (protein, UniProt P97536 1-1230)
chain: MASASYHISNLLEKMTSSDKDFRFMATNDLMTELQKDSIKLDDDSERKVVKMILKLLEDKNGEVQNLAVKCLGPLVSKVKEYQVETIVDTLCTNMLSDKEQLRDISSIGLKTVIGELPPASSGSALAANVCKKITGRLTSAIAKQEDVSVQLEALDIMADMLSRQGGLLVNFHPSILTCLLPQLTSPRLAVRKRTIIALGHLVMSCGNIVFVDLIEHLLSELSKNDSMSTTRTYIQCIAAISRQAGHRIGEYLEKIIPLVVKFCNVDDDELREYCIQAFESFVRRCPKEVYPHVSTIINICLKYLTYDPNYNYDDEDEDENAMDADGGDDDDQGSDDEYSDDDDMSWKVRRAAAKCLDAVVSTRHEMLPEFYKTVSPALISRFKEREENVKADVFHAYLSLLKQTRPVQSWLCDPDAMEQGETPLTMLQSQVPNIVKALHKQMKEKSVKTRQCCFNMLTELVNVLPGALTQHIPVLVPGIIFSLNDKSSSSNLKIDALSCLYVILCNHSPQVFHPHVQALVPPVVACVGDPFYKITSEALLVTQQLVKVIRPLDQPSSFDATPYIKDLFTCTIKRLKAADIDQEVKERAISCMGQIICNLGDNLGPDLSNTLQIFLERLKNEITRLTTVKALTLIAGSPLKIDLRPVLGEGVPILASFLRKNQRALKLGTLSALDILIKNYSDSLTAAMIDAVLDELPPLISESDMHVSQMAISFLTTLAKVYPSSLSKISGSILNELIGLVRSPLLQGGALSAMLDFFQALVVTGTNNLGYMDLLRMLTGPVYSQSTALTHKQSYYSIAKCVAALTRACPKEGPAVVGQFIQDVKNSRSTDSIRLLALLSLGEVGHHIDLSGQLELKSVILEAFSSPSEEVKSAASYALGSISVGNLPEYLPFVLQEITSQPKRQYLLLHSLKEIISSASVVGLKPYVENIWALLLKHCECAEEGTRNVVAECLGKLTLIDPETLLPRLKGYLISGSSYARSSVVTAVKFTISDHPQPIDPLLKNCIGDFLKTLEDPDLNVRRVALVTFNSAAHNKPSLIRDLLDSVLPHLYNETKVRKELIREVEMGPFKHTVDDGLDIRKAAFECMYTLLDSCLDRLDIFEFLNHVEDGLKDHYDIKMLTFLMLVRLSTLCPSAVLQRLDRLVEPLRATCTTKVKANSVKQEFEKQDELKRSAMRAVAALLTIPEAEKSPLMSEFQSQISSNPELAAIFESIQKDSSSTNLESMDTS
As to B1, the binding entry with TAP-Kv4.2 (human) [1] and with TAP-Kv4.2 (human) [2] was “binds” throughout.

B2: Pc (protein, UniProt P52873 21-1178)
chain: TAPVASPNVRRLEYKPIKKVMVANRGEIAIRVFRACTELGIRTVAVYSEQDTGQMHRQKADEAYLIGRGLAPVQAYLHIPDIIKVAKENGVDAVHPGYGFLSERADFAQACQDAGVRFIGPSPEVVRKMGDKVEARAIAIAAGVPVVPGTNSPINSLHEAHEFSNTYGFPIIFKAAYGGGGRGMRVVHSYEELEENYTRAYSEALAAFGNGALFVEKFIEKPRHIEVQILGDQYGNILHLYERDCSIQRRHQKVVEIAPATHLDPQLRSRLTSDSVKLAKQVGYENAGTVEFLVDKHGKHYFIEVNSRLQVEHTVTEEITDVDLVHAQIHVSEGRSLPDLGLRQENIRINGCAIQCRVTTEDPARSFQPDTGRIEVFRSGEGMGIRLDNASAFQGAVISPHYDSLLVKVIAHGKDHPTAATKMSRALAEFRVRGVKTNIPFLQNVLNNQQFLAGIVDTQFIDENPELFQLRPAQNRAQKLLHYLGHVMVNGPTTPIPVKVSPSPVDPIVPVVPIGPPPAGFRDILLREGPEGFARAVRNHQGLLLMDTTFRDAHQSLLATRVRTHDLKKIAPYVAHNFNNLFSIENWGGATFDVAMRFLYECPWRRLQELRELIPNIPFQMLLRGANAVGYTNYPDNVVFKFCEVAKENGMDVFRIFDSLNYLPNMLLGMEAAGSAGGVVEAAISYTGDVADPSRTKYSLEYYMGLAEELVRAGTHILCIKDMAGLLKPAACTMLVSSLRDRFPDLPLHIHTHDTSGSGVAAMLACAQAGADVVDVAVDSMSGMTSQPSMGALVACTKGTPLDTEVPLERVFDYSEYWEGARGLYAAFDCTATMKSGNSDVYENEIPGGQYTNLHFQAHSMGLGSKFKEVKKAYVEANQMLGDLIKVTPSSKIVGDLAQFMVQNGLSRAEAEAQAEELSFPRSVVEFLQGYIGIPHGGFPEPFRSKVLKDLPRIEGRPGASLPPLNLKELEKDLIDRHGEEVTPEDVLSAAMYPDVFAQFKDFTATFGPLDSLNTRLFLQGPKIAEEFEVELERGKTLHIKALAVSDLNRAGQRQVFFELNGQLRSILVKDTQAMKEMHFHPKALKDVKGQIGAPMPGKVIDVKVAAGAKVVKGQPLCVLSAMKMETVVTSPMEGTIRKVHVTKDMTLEGDDLILEIE
On to B2, for which the binding entry with TAP-Kv4.2 (human) [1] and with TAP-Kv4.2 (human) [2] was “binds” throughout.

B3: Kv4.1 (protein, UniProt D3ZYK3 1-650)
chain: MAAGVATWLPFARAAAVGWLPLAQQPLPPAPEVKASRGDEVLVVNVSGRRFETWKNTLDRYPDTLLGSSEKEFFYDAESGEYFFDRDPDMFRHVLNFYRTGRLHCPRQECIQAFDEELAFYGLVPELVGDCCLEEYRDRKKENAERLAEDEEAEQAGEGPALPAGSSLRQRLWRAFENPHTSTAALVFYYVTGFFIAVSVIANVVETIPCRGPARWPTKEQPCGDRFPTAFFCMDTACVLIFTGEYLLRLFAAPSRCRFLRSVMSLIDVVAILPYYIGLFVPKNDDVSGAFVTLRVFRVFRIFKFSRHSQGLRILGYTLKSCASELGFLLFSLTMAIIIFATVMFYAEKGTSKTNFTSIPAAFWYTIVTMTTLGYGDMVPSTIAGKIFGSICSLSGVLVIALPVPVIVSNFSRIYHQNQRADKRRAQQKVRLARIRLAKSGTTNAFLQYKQNGGLEDSGSGEGQMLCVRSRSAFEQQHHHLLHCLEKTTCHEFTDELTFSEALGAVSLGGRTSRSTSVSSQPMGPGSLFSSCCSRRGERRAIRLANSTASVSRGSMQELDTLAGLRRSPAPQSRSSLNAKPHDSLDLNCESRDFVAAIISIPTPPANTPDESQPSSPGGGGSGGMANTTLRNSSLATPCLLPETVKISSL
In the case of B3, the binding result in the experiment with TAP-Kv4.2 (human) [1] and with TAP-Kv4.2 (human) [2] was “binds” throughout.

B4: Clasp2 (protein, UniProt Q99JD4 1-1286)
chain: MRRLICKRICDYKSFDDEESVDGNRPSSAASAFKVPAPKTPGNPVNSARKPGSAGGPKAGGTSKEGGAGAVDEDDFIKAFTDVPSIQIYSSRELEETLNKIREILSDDKHDWDQRANALKKIRSLLVAGAAQYDCFFQHLRLLDGALKLSAKDLRSQVVREACITVAHLSTVLGNKFDHGAEAIVPTLFNLVPNSAKVMATSGCAAIRFIIRHTHVPRLIPLITSNCTSKSVPVRRRSFEFLDLLLQEWQTHSLERHAAVLVETIKKGIHDADAEARVEARKTYMGLRNHFPGEAETLYNSLEPSYQKSLQTYLKSSGSVASLPQSDRSSSSSQESLNRPFSSKWSTANPSAVAGRVSVGGSKASPLPGSLQRSRSDIDVNAAAGAKAHHAAGQAVRSGRLGAGALNPGSYASLEDTSDKMDGTASEDGRVRAKLSTPLVAVGNAKTDSRGRSRTKMVSQSQPGSRSGSPGRVLTTTALSTVSSGAQRILVNSASAQKRSKIPRSQGCSREASPSRLSVARSSRIPRPSVSQGCSREASRESSRDTSPVRSFQPLGPGYGMSQSSRLSSSVSAMRVLNTGSDVEEAVADALLLGDIRTKKKPARRRYESYGMHSDDDANSDASSACSERSYSSRNGSIPTYMRQTEDVAEVLNRCASSNWSERKEGLLGLQNLLKNQRTLSRVELKRLCEIFTRMFADPHGKVFSMFLETLVDFIQVHKDDLQDWLFVLLTQLLKKMGADLLGSVQAKVQKALDVTRESFPNDLQFNILMRFTVDQTQTPSLKVKVAILKYIETLAKQMDPGDFINSSETRLAVSRVITWTTEPKSSDVRKAAQSVLISLFELNTPEFTMLLGALPKTFQDGATKLLHNHLRNTGNGTQSSMGSPLTRPTPRSPANWSSPLTSPTNTSQNTLSPSAFDYDTENMNSEDIYSSLRGVTEAIQNFSFRSQEDMSEPLKRDPKKEDGDTVCSGPGMSDPRAGGDAPDSSQPALDNKASLLHSVPLHSSPRSRDYNPYNYSDSISPFNKSALKEAMFDDDADQFPDDLSLDHSDLVAELLKELSNHNERIEERKIALYELMKLTQEESFSVWDEHFKTILLLLLETLGDKEPTIRALALKVLKEILRHQPARFKNYAELTVMKTLEAHKDPHKEVVRSAEEAASVLATSISPEQCIKVLCPIIQTADYPINLAAIKMQTKVIERVSKETLNLLLPEIMPGLIQGYDNSESSVRKACVFCLVAVHAVIGDELKPHLSQLTGSKMKLLNLYIKRAQTGSAGADPTTDVSGQS
For B4, the binding entry in the experiment with TAP-Kv4.2 (human) [1] and with TAP-Kv4.2 (human) [2] was “binds” throughout.

B5: Matr3 (protein, UniProt P43244 1-845)
chain: MSKSFQQSSLGRDSQGHGRDLSAAGIGLLAAATQSLSMPASLGRMNQGTARLASLMNLGMSSSLNQQGAHSALSSASTSSHNLQSIFNIGSRGPLPLSSQHRGDTDQASNILASFGLSARDLDELSRYPEDKITPENLPQILLQLKRRRTEEGPTLSYGRDGRSATREPPYRVPRDDWEEKRHFRRDSFDDRGPSLNPVLDYDHGSRSQESGYYDRMDYEDDRLRDGERCRDDSFFGETSHNYHKFDSEYERMGRGPGPLQERSLFEKKRGAPPSSNIEDFHGLLPKGYPHLCSICDLPVHSNKEWSQHINGASHSRRCQLLLEIYPEWNPDNDTGHTMGDPFMLQQSTNPAPGILGPPPPSFHLGGPAVGPRGNLGAGNGNLQGPRHMQKGRVETSRVVHIMDFQRGKNLRYQLLQLVEPFGVISNHLILNKINEAFIEMATTEDAQAAVDYYTTTPALVFGKPVRVHLSQKYKRIKKPEGKPDEKFDQKQELGRVIHLSNLPHSGYSDSAVLKLAEPYGKIKNYILMRMKSQAFIEMETREDAMAMVDHCLKKALWFQGRCVKVDLSEKYKKLVLRIPNRGIDLLKKDKSRKRSYSPDGKESPSDKKSKTDGAQKTENPAEGKEQEEKSGEDGEKDTKDDQTEQEPSMLLESEDELLVDEEEAAALIESGSSVGDETDLANLGDVSSDGKKEPSDKAVKKDASATSKKKLKKVDKIEELDQENEAALENGIKNEENTEPGAESAENADDPNKDASDNSDGQNDENKEDYTIPDEYRIGPYQPNVPGGIDYVIPKTGFYCKLCSLFYTNEEVAKNTHCSSLPHYQKLKKFLNKLAEERRQKKES
Take B5: the binding entry with TAP-Kv4.2 (human) [1] and with TAP-Kv4.2 (human) [2] was “binds” each time.
